For two substances, binding results are on record in paper PMC12208556.

Amino acid sequences for entries named in this document (tags omitted). A change or cut given only in a name is not applied to a line headed by its entry. Residues count along the entry.
UniProt P07996, residues 19-1170: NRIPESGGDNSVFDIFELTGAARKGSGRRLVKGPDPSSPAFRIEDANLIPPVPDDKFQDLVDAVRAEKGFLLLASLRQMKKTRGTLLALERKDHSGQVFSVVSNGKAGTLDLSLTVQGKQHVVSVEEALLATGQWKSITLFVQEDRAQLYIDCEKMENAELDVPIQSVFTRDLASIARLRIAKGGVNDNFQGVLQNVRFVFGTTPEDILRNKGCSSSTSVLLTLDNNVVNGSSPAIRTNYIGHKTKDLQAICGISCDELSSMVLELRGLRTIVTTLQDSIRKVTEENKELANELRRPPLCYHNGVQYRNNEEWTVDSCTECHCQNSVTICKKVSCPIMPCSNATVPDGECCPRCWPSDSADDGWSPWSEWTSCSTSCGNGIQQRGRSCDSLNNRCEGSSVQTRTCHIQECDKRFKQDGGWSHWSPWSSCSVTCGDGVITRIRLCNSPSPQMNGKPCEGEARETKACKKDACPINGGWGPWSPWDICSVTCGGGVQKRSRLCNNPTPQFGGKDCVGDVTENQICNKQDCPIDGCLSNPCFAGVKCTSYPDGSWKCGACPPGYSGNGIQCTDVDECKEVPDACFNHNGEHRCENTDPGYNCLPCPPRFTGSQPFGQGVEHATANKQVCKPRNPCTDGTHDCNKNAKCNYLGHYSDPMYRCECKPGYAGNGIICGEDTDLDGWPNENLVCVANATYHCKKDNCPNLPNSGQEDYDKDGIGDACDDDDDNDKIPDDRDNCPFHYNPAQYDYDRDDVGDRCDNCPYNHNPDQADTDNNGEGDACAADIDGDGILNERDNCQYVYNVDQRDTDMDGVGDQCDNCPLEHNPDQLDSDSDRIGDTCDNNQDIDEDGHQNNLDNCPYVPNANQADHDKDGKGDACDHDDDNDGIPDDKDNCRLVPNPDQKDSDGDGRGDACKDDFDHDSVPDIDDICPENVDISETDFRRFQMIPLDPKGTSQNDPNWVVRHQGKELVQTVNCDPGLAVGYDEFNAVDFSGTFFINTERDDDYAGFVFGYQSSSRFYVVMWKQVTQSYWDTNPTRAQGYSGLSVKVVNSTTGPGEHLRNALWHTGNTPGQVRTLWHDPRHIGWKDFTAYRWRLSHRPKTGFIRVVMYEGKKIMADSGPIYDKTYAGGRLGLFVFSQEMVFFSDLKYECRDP
UniProt P01024: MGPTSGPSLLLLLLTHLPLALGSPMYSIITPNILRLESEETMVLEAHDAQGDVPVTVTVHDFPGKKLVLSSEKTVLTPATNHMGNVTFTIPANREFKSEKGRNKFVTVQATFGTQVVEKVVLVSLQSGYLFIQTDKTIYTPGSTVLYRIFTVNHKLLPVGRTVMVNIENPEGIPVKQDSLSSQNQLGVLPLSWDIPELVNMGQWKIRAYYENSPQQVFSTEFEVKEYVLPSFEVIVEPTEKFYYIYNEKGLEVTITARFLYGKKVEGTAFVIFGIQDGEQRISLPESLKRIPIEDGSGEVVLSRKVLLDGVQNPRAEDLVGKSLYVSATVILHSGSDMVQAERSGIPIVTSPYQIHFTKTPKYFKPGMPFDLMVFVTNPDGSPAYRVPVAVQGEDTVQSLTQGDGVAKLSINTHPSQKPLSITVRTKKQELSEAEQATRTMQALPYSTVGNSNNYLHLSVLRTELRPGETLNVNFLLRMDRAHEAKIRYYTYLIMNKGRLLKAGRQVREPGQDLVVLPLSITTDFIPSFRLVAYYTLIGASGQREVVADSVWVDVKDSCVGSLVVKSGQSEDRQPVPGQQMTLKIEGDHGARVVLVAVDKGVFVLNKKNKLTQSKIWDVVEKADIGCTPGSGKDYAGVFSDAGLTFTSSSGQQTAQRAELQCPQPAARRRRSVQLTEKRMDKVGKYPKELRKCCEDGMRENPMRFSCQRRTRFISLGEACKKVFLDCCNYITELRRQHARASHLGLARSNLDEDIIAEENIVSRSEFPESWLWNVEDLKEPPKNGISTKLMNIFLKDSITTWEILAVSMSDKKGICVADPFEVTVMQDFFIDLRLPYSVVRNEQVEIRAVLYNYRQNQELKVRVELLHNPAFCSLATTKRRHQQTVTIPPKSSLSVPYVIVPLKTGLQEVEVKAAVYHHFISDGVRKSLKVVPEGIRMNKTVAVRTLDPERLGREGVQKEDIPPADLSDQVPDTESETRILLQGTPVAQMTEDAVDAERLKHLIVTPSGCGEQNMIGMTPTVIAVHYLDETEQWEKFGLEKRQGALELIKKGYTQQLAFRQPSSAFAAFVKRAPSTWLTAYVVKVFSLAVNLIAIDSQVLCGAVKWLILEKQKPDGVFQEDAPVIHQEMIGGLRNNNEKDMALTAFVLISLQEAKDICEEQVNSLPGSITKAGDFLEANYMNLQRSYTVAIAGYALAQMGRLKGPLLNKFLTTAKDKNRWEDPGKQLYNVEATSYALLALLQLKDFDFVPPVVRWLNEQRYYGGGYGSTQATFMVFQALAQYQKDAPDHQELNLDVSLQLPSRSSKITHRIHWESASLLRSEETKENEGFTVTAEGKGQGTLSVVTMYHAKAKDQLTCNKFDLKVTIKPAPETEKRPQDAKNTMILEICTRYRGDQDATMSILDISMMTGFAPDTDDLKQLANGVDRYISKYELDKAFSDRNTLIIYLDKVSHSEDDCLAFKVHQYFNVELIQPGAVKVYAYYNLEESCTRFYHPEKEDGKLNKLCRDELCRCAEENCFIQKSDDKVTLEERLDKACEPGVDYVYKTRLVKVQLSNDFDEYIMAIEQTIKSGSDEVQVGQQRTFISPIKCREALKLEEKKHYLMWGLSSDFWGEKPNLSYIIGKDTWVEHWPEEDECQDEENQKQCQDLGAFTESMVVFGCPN
UniProt P01031: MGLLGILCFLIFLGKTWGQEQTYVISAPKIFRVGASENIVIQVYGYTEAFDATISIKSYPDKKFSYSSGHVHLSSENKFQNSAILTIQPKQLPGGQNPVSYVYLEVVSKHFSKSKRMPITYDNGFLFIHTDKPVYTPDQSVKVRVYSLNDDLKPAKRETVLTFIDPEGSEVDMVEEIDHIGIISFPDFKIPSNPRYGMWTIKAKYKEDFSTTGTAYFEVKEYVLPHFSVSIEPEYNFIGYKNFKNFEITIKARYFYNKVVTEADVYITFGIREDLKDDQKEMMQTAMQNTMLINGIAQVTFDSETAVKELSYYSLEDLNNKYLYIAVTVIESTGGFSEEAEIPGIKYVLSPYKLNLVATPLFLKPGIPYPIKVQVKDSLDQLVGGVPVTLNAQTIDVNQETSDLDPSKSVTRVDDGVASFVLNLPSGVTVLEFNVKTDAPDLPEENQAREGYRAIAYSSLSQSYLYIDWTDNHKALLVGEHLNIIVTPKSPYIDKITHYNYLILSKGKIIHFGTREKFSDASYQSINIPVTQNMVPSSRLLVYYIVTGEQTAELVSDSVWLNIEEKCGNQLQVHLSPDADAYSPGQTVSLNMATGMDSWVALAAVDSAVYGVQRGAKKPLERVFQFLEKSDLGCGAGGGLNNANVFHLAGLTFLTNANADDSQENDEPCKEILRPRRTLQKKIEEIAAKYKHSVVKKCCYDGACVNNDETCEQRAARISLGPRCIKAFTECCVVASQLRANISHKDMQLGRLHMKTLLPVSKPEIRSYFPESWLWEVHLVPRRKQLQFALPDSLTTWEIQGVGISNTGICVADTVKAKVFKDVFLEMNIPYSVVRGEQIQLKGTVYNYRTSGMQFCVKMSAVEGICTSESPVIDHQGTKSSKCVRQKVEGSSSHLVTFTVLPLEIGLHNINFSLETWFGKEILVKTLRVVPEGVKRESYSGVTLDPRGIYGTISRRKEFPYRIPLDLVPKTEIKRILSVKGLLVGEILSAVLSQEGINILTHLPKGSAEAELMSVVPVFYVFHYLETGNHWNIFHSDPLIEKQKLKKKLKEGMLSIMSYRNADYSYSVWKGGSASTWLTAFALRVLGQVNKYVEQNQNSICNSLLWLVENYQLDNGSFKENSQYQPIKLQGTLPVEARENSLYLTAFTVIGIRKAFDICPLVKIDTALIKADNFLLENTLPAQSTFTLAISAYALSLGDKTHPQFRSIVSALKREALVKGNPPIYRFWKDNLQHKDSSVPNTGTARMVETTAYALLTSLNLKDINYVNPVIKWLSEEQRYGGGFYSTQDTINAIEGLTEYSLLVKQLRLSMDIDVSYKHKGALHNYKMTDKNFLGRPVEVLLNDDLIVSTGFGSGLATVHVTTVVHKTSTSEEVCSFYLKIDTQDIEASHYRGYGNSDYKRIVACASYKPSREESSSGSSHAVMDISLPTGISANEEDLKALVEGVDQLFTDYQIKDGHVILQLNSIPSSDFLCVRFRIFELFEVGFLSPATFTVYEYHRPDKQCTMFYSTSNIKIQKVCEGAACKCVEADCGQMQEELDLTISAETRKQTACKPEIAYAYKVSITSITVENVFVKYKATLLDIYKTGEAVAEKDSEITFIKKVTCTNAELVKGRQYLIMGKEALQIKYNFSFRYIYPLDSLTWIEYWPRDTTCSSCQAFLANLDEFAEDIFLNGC
UniProt P07357: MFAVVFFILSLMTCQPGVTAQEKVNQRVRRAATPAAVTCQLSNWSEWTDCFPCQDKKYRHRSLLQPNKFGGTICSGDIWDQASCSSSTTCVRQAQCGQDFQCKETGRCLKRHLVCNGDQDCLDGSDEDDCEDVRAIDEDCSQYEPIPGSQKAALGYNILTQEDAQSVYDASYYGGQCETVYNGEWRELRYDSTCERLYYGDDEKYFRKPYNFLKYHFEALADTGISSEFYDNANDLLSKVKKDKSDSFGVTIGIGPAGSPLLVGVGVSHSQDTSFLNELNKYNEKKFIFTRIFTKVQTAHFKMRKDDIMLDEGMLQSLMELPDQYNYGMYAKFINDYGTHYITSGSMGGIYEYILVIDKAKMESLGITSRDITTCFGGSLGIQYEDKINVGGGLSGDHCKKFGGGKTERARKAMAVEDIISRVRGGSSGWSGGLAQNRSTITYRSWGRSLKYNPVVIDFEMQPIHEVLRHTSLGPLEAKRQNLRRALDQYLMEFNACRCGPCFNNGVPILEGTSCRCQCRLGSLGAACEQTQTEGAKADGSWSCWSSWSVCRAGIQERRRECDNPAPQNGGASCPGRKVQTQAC
UniProt P08603, residues 19-1231: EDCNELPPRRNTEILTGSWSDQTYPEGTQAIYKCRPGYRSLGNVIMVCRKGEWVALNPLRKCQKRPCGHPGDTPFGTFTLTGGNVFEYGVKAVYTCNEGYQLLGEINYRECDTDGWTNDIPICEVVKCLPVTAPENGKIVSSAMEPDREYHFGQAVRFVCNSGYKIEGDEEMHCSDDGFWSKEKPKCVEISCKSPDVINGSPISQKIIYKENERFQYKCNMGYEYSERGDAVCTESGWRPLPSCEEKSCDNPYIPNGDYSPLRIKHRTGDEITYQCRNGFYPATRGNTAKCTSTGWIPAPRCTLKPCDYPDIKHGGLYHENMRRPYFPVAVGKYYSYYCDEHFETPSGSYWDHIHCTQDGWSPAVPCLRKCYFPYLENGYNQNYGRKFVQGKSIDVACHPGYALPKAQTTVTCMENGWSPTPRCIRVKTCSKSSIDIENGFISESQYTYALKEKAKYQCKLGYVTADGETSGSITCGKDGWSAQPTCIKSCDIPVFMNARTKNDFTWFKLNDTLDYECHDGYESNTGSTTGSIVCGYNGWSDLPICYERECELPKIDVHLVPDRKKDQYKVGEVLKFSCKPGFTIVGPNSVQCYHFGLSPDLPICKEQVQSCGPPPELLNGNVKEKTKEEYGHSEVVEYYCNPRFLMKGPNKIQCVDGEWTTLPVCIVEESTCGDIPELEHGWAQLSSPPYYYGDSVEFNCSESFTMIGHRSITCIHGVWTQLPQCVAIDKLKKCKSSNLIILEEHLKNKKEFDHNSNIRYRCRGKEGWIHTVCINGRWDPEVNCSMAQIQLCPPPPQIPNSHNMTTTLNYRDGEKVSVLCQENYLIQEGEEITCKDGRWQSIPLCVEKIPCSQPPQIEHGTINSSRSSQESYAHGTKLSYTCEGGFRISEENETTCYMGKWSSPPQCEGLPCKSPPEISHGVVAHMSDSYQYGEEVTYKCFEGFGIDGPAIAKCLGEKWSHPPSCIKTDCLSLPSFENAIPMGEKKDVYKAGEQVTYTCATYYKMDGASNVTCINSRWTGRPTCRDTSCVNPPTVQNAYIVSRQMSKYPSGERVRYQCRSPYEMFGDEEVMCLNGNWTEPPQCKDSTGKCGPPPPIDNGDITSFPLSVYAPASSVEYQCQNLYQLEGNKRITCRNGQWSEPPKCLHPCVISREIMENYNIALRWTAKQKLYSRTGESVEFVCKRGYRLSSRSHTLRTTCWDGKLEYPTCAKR

In experiment [1] the target is recombinant full-length thrombospondin-1 (TSP-1) (human) (UniProt P07996). The experiment in a line: SPR; BIAcore 3000; TSP-1 bound covalently to CM5 chips at 0.1 μM; complement proteins flowed at 12.3, 37.03, 111.1, 333.3, 1,000 nM in PBS plus 0.05% Tween 20; 1:1 Langmuir binding model; average of 3 measurements; both purified. A general note: SPR reads the build-up and loss of mass on a sensor chip optically.

Experiment [2] addresses complement C3 (UniProt P01024). The experiment in a line: ELISA; binding ELISA with platelet-isolated (untagged) TSP-1; Supplemental Figure 1; details not shown; both purified. (An ELISA detects its analyte on a solid surface through an enzyme-linked reagent.)
Experiment [3] addresses complement C5 (UniProt P01031). The experiment is described as above.
Experiment [4] addresses complement C8 (UniProt P07357). The description is as above.
Experiment [5] addresses complement factor H (FH) (UniProt P08603). Described as above.

Results are given in words; binding and its absence hold for the method and conditions named. Some results given as binding are weak or reduced against the parent protein; the word gives no strength.

For “complement C3b (from UniProt P01024 23-667; P01024 749-1663)”, in experiment [1], the binding entry was “binds weakly”.
As to “platelet-isolated TSP-1 (p-TSP-1) (from UniProt P07996 19-1170)”, the binding entry in experiment [2], in experiment [3], in experiment [4] and in experiment [5] was “binds” throughout.
